Results are given in words; binding and its absence hold for the method and conditions named. Binding seen in cells or lysates may run through a third protein. Here binding means that the protein was enriched with, or labelled near, the bait; the list need not be complete.
Molecular target: PB2-TAP fusion protein of influenza A/WSN/33 (WSN, H1N1) virus (influenza A/WSN/33 (WSN, H1N1) virus) (UniProt P03427)
Assay: affinity purification with mass spectrometry

The chains behind the UniProt entries cited, without tags or fusion partners.
UniProt P03427: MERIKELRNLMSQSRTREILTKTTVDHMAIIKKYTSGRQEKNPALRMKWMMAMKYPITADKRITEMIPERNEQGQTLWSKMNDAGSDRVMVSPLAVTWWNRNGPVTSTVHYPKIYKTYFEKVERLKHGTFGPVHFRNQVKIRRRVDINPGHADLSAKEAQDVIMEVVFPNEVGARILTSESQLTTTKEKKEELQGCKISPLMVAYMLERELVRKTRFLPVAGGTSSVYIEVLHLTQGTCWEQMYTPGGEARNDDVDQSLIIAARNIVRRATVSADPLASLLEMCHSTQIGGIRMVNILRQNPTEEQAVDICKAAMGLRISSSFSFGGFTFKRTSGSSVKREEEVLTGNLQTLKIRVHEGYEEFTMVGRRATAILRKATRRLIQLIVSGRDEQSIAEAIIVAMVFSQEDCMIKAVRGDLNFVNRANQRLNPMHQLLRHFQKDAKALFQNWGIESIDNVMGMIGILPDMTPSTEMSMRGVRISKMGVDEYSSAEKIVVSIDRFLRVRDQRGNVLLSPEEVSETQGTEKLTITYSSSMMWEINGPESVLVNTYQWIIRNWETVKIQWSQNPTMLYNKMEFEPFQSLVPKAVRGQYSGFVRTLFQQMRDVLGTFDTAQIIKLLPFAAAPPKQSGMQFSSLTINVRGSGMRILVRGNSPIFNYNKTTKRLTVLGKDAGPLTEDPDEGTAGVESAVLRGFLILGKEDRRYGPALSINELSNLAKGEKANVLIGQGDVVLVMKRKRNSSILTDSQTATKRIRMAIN
UniProt Q32P51: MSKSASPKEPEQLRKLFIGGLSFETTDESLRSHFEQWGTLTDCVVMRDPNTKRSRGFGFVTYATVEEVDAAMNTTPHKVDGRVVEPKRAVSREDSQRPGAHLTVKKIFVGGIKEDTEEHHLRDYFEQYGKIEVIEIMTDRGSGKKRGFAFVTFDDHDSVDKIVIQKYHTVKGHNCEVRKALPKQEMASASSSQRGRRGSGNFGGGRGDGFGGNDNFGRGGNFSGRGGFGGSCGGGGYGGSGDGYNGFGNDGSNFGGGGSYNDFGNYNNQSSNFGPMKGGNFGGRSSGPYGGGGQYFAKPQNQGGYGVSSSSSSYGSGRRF

hnRNPA1L2 (from UniProt Q32P51 1-320)
binding: binds
